The list is a part of this screen's results and no random one: it is rich in T/C values a quarter to a half above the control, in often repeated tests (any T/C) and in doses without a T/C. Further doses and runs are listed elsewhere. T/C is the treated group as % of the vehicle group. Some entries give survivors of the animals treated and no T/C: the source files T/C as zero there, which appears to mark a toxic dose or a test without result, not a measured value. Some survivor counts are full or nearly so, which does not show that the dose was tolerated: the source hardly ever lists a survival T/C far under the control, and the zero likely stands for such cases as well. Survivors were counted at the toxicity check, usually on the fifth day, unless a day is given; later deaths do not show. Schedule codes are those of the source, read here as Q, the interval in days (D) or hours (H), X, the number of doses. Where survival is the endpoint, this PubChem deposit counts one and a half times the control or more as active, and values a quarter to a half above the control carry no call in these data; other NCI protocols may use other cut-offs. Some entries were tested several times; their values stand side by side, smallest first. Some T/C values are followed by the survivors on the day toxicity was checked, most often the fifth; without a count, all were alive then.
Tested on: P388 leukemia ip, CD2F1 mice, survival T/C
Assay: NCI In Vivo Anticancer Drug Screen. Data for tumor model P388 Leukemia (intraperitoneal) in CD2F1 (CDF1) mice
Settings: T/C endpoint: median survival time, higher T/C = longer survival
[1] = dose: 240.0 mg/kg/injection, schedule: Q01DX005 (ip), vehicle: Klucel (hydroxypropylcellulose) (HPC)
[2] = dose: 400.0 mg/kg/injection, schedule: Q04DX003 (ip), vehicle: saline with Tween-80
[3] = dose: 200.0 mg/kg/injection, schedule: Q01DX009 (ip), vehicle: saline with Tween-80
[4] = dose: 60.0 mg/kg/injection, schedule: Q01DX005 (ip), vehicle: saline with Tween-80
[5] = dose: 120.0 mg/kg/injection, schedule: Q01DX005 (ip), vehicle: saline with Tween-80
[6] = dose: 240.0 mg/kg/injection, schedule: Q01DX005 (ip), vehicle: saline with Tween-80
[7] = dose: 200.0 mg/kg/injection, schedule: Q01DX009 (ip), vehicle: saline
[8] = dose: 100.0 mg/kg/injection, schedule: Q04DX003 (ip), vehicle: saline
[9] = dose: 200.0 mg/kg/injection, schedule: Q04DX003 (ip), vehicle: saline
[10] = dose: 100.0 mg/kg/injection, schedule: Q01DX009 (ip), vehicle: saline
[11] = dose: 400.0 mg/kg/injection, schedule: Q04DX003 (ip), vehicle: saline

`[N-]=[N+]=NC(=O)Nc1ccccc1F` was tested, and the survivor count (dose: 15.0 mg/kg/injection, schedule: Q01DX005 (ip), vehicle: Klucel (hydroxypropylcellulose) (HPC)) was 1 of 6, the survivor count (dose: 30.0 mg/kg/injection, schedule: Q01DX005 (ip), vehicle: Klucel (hydroxypropylcellulose) (HPC)) was 0 of 6 and the survivor count (dose: 60.0 mg/kg/injection, schedule: Q01DX005 (ip), vehicle: Klucel (hydroxypropylcellulose) (HPC)) was 0 of 6. For the same molecule, the survivor count (dose: 120.0 mg/kg/injection, schedule: Q01DX005 (ip), vehicle: Klucel (hydroxypropylcellulose) (HPC)) was 0 of 6 and the survivor count [1] was 0 of 6.

In the case of `O=C1NC(=O)C(c2ccccc2)(c2ccccc2)N1CCS`, the T/C (dose: 100.0 mg/kg/injection, schedule: Q04DX003 (ip), vehicle: Klucel (hydroxypropylcellulose) (HPC)) is reported as 126 % of control.

For `c1cc[c]([Sn]([O][Sn]([c]2ccccc2)([c]2ccccc2)[c]2ccccc2)([c]2ccccc2)[c]2ccccc2)cc1`, the survivor count (dose: 1.56 mg/kg/injection, schedule: Q04DX003 (ip), vehicle: Klucel (hydroxypropylcellulose) (HPC)) was 6 of 6, the survivor count (dose: 6.25 mg/kg/injection, schedule: Q04DX003 (ip), vehicle: Klucel (hydroxypropylcellulose) (HPC)) was 6 of 6 and the survivor count (dose: 12.5 mg/kg/injection, schedule: Q04DX003 (ip), vehicle: saline with Tween-80) was 0 of 6. For the same molecule, the survivor count (dose: 25.0 mg/kg/injection, schedule: Q04DX003 (ip), vehicle: saline with Tween-80) was 0 of 6, the survivor count (dose: 100.0 mg/kg/injection, schedule: Q04DX003 (ip), vehicle: saline with Tween-80) was 0 of 6 and the survivor count (dose: 200.0 mg/kg/injection, schedule: Q04DX003 (ip), vehicle: saline with Tween-80) was 0 of 6. The survivor count [2] was 0 of 6.

In the case of `O=[N+]([O-])CC(OCCCCCCO)C(Cl)(Cl)Cl` (centres undefined), the survivor count [3] is reported as 3 of 6.

In the case of `Cc1cccc2c1nc(C)c1nc(-c3ccccc3)oc12`, the survivor count (dose: 50.0 mg/kg/injection, schedule: Q01DX005 (ip), vehicle: saline with Tween-80) is reported as 5 of 5.

For `c1ccc(C2CN3CCSC3=N2)cc1` (centres undefined), the survivor count [4] was 0 of 6, the survivor count [5] was 0 of 6 and the survivor count [6] was 0 of 6.

In the case of `COc1cc2c(cc1OC)[C@H]1[C@H](C)c3ccc4c(c3CN1CC2)OCO4`, the survivor count (dose: 100.0 mg/kg/injection, schedule: Q04DX002 (ip), vehicle: Klucel (hydroxypropylcellulose) (HPC)) is reported as 4 of 5 and the survivor count (dose: 200.0 mg/kg/injection, schedule: Q04DX002 (ip), vehicle: Klucel (hydroxypropylcellulose) (HPC)) is reported as 0 of 5.

For `Clc1ccccc1OCc1cnc[nH]1`, the survivor count [7] was 0 of 6.

For `c1nnc2c3c4c(sc3ncn12)CCCC4`, the survivor count (dose: 200.0 mg/kg/injection, schedule: Q01DX005 (ip), vehicle: saline with Tween-80) was 1 of 6.

`CCOC(=O)CCN(CC)CC` was tested, and the T/C [8] was 127 % of control and the T/C [9] was 145 % of control.

With `OCCN1CCN(CC/C=C2/c3ccccc3Sc3ccc(C(F)(F)F)cc32)CC1` the T/C (dose: 20.0 mg/kg/injection, schedule: Q04DX003 (ip), vehicle: saline) was 129 % of control, the T/C (dose: 40.0 mg/kg/injection, schedule: Q04DX003 (ip), vehicle: saline) was 126 and 135 % of control and the T/C (dose: 80.0 mg/kg/injection, schedule: Q04DX003 (ip), vehicle: saline) was 135 % of control.

`Cn1c(=O)c2c(ncn2C)n(C)c1=O.[Cl][Pt]([Cl])[Cl]` was tested, and the T/C (dose: 25.0 mg/kg/injection, schedule: Q01DX005 (ip), vehicle: water) was 133 % of control, the T/C (dose: 50.0 mg/kg/injection, schedule: Q01DX005 (ip), vehicle: water) was 132 % of control and the T/C (dose: 100.0 mg/kg/injection, schedule: Q01DX005 (ip), vehicle: water) was 145 % of control. For the same molecule, the survivor count (dose: 200.0 mg/kg/injection, schedule: Q01DX005 (ip), vehicle: water) was 0 of 6.

`COc1ccc2c(c1)OC(C)(C)C(c1ccccc1)=C2c1ccc2c(c1)NCCO2` was tested, and the survivor count [4] was 6 of 6, the survivor count [5] was 6 of 6 and the survivor count [6] was 6 of 6.

In the case of `CS(=O)(=O)OCCN(CCOS(C)(=O)=O)c1ccccc1`, the T/C (dose: 12.5 mg/kg/injection, schedule: Q04DX003 (ip), vehicle: saline) is reported as 140 % of control, the T/C (dose: 50.0 mg/kg/injection, schedule: Q04DX003 (ip), vehicle: saline) is reported as 131 % of control and the survivor count [10] is reported as 6 of 6.

For `Nc1nc2c(ncn2C2OC(CO)C(O)C2O)c(=O)[nH]1.Nc1nc2c(ncn2C2OC(CO)C(O)C2O)c(=O)[nH]1.[NH2-].[NH2-].[Pt+2]` (centres undefined), the T/C (dose: 25.0 mg/kg/injection, schedule: Q01DX009 (ip), vehicle: water) was 138 % of control [3 of 4 alive], the T/C [10] was 137 % of control and the T/C [7] was 126 % of control. The T/C (dose: 200.0 mg/kg/injection, schedule: Q01DX009 (ip), vehicle: water) was 129 % of control, the T/C (dose: 400.0 mg/kg/injection, schedule: Q01DX009 (ip), vehicle: saline) was 126 % of control and the survivor count (dose: 400.0 mg/kg/injection, schedule: Q01DX009 (ip), vehicle: water) was 3 of 4. The T/C [11] was 129 % of control and the T/C (dose: 800.0 mg/kg/injection, schedule: Q04DX003 (ip), vehicle: saline) was 129 % of control.

With `c1cc2cc(-c3ccc(-c4cc5ccc(C6=NCCN6)cc5[nH]4)cc3)[nH]c2cc1C1=NCCN1` the T/C [8] was 138 % of control, the T/C [9] was 138 % of control and the T/C [11] was 130 % of control.

In the case of `N#C/C(=C\Nc1ccccn1)C(=O)c1ccco1`, the survivor count [6] is reported as 5 of 6.

For `CC(Nc1nncs1)Nc1nncs1`, the T/C [4] was 126 and 128 % of control.

In the case of `CSc1n[nH]c(-c2cccs2)n1`, the survivor count [1] is reported as 1 of 6.

For `CC1CC2(OC2C)C(=O)OC2CCN(C)C/C=C(/COC(=O)C1(C)O)C2=O` (centres undefined), the T/C (dose: 20.0 mg/kg/injection, schedule: Q01DX009 (ip), vehicle: Klucel (hydroxypropylcellulose) (HPC)) was 128 % of control.

`O=C(Nc1ccc(Cl)c(Cl)c1)Oc1cccnc1` was tested, and the survivor count [3] was 5 of 6.

`CCc1nc(N)nc(N)c1-c1ccc(N2CCCCC2)cc1` was tested, and the survivor count [4] was 1 of 6, the survivor count [5] was 0 of 6 and the survivor count [6] was 0 of 6.

For `Nc1c(-c2ccc(C3=NCCN3)cc2)[nH]c2cc(C3=NCCN3)ccc12`, the T/C (dose: 25.0 mg/kg/injection, schedule: Q01DX005 (ip), vehicle: Klucel (hydroxypropylcellulose) (HPC)) was 128 % of control, the T/C (dose: 50.0 mg/kg/injection, schedule: Q01DX005 (ip), vehicle: Klucel (hydroxypropylcellulose) (HPC)) was 130 % of control and the survivor count (dose: 100.0 mg/kg/injection, schedule: Q01DX005 (ip), vehicle: Klucel (hydroxypropylcellulose) (HPC)) was 0 of 6. For the same molecule, the survivor count (dose: 200.0 mg/kg/injection, schedule: Q01DX005 (ip), vehicle: Klucel (hydroxypropylcellulose) (HPC)) was 0 of 6.

For `C=C1CC2C3CC=C4CC(OC(C)=O)CCC4(C)C3CCC2(C)C1=O` (centres undefined), the survivor count (dose: 50.0 mg/kg/injection, schedule: Q01DX009 (ip), vehicle: saline with Tween-80) was 3 of 6 and the survivor count [7] was 3 of 6.

`CCCCCCCC(=O)Nc1cccc(C)c1C` was tested, and the survivor count [2] was 5 of 6.

In the case of `CN(C)CCc1ccccn1`, the survivor count [8] is reported as 4 of 6, the survivor count [9] is reported as 2 of 6 and the survivor count [11] is reported as 0 of 6.

With `CC12CC(C(=O)O)C3(O)CC(C)(C1)CC(C)(C2)C3` (centres undefined) (tested in a mixture with another compound) the T/C (dose: 50.0 mg/kg/injection, schedule: Q01DX009 (ip), vehicle: Klucel (hydroxypropylcellulose) (HPC)) was 131 % of control, the T/C (dose: 100.0 mg/kg/injection, schedule: Q01DX009 (ip), vehicle: Klucel (hydroxypropylcellulose) (HPC)) was 140 % of control and the T/C (dose: 200.0 mg/kg/injection, schedule: Q01DX009 (ip), vehicle: Klucel (hydroxypropylcellulose) (HPC)) was 125 and 148 % of control. The survivor count (dose: 400.0 mg/kg/injection, schedule: Q01DX009 (ip), vehicle: Klucel (hydroxypropylcellulose) (HPC)) was 1 of 6.

With `CCOC(=O)c1c[nH]c(=S)n(CCOC)c1=O` the survivor count [3] was 6 of 6.

`Nc1nc([Se])c2ncn(C3CC(O)C(CO)O3)c2n1` (centres undefined) was tested, and the T/C (dose: 3.13 mg/kg/injection, schedule: Q01DX009 (ip), vehicle: Klucel (hydroxypropylcellulose) (HPC)) was 143 % of control [5 of 6 alive], the T/C (dose: 6.25 mg/kg/injection, schedule: Q01DX009 (ip), vehicle: Klucel (hydroxypropylcellulose) (HPC)) was 138 and 147 % of control and the T/C (dose: 12.5 mg/kg/injection, schedule: Q01DX009 (ip), vehicle: Klucel (hydroxypropylcellulose) (HPC)) was 148 % of control.

Source: PubChem BioAssay AID330 (DTP/NCI, 2004)
